Values of other authors in US10688070B2, “Serine glycerophospholipid preparation and method for treatment of seizures” (ENZYMOTEC LTD., priority 2013, dated 2020).
At least one compound was matched to its structure with a doubt left.

What was measured:
hippocampal slices = settings: in vitro

## CC/C=C\C/C=C\C/C=C\C/C=C\C/C=C\C/C=C\CCC(=O)O [unesterified DHA, Docosahexaenoic acid]
Hippocampal slices
  Threshold of action potential and neuronal excitability: increases the threshold of action potential and reduces neuronal excitability
Male wistar rats; male wistar rats, Human Equivalent Dosage 3819 mg
  Optimal dose that increases seizure latencies: 400 mg/kg
Male wistar rats; subcutaneous, maximal PTZ seizure test
  Seizure latencies: increased seizure latencies
